Source: paper PMC5773591, “Structural basis of trans-synaptic interactions between PTPδ and SALMs for inducing synapse formation” (Nature Communications, 2018)
These are yes or no findings as the source states them, for the method shown. For part of these data: A result given as binding can be weak or reduced; the word gives no strength. Sequences can lack the tags named with a protein.

Columns and labels:
[1] = molecular target: T1, mouse SALM2 LRR–Ig-His6 (residues 32–390) (mouse) (UniProt Q2WF71); experiment: crystal structure; co-crystals of PTPδ Ig1–Fn1 with SALM5 LRR–Ig (70 µM each) and of PTPδ Ig1–Ig3 with SALM2 LRR–Ig (57 µM each), sitting drop vapor diffusion, 20 °C; two complexes in the asymmetric unit (2:2); both purified
T1 sequence: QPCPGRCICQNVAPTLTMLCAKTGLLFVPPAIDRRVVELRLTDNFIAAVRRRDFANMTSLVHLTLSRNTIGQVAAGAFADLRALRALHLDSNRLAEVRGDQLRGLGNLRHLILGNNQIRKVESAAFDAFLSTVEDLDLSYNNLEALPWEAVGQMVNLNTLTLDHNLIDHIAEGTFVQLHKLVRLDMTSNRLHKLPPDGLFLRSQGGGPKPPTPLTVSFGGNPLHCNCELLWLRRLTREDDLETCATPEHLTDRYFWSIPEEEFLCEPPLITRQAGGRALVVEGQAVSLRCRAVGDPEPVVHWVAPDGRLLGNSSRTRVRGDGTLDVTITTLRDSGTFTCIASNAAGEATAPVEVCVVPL

[2] = molecular target: T2, human SALM5 LRR–Ig-His6 (residues 18–378) (human) (UniProt Q96NI6); experiment: SPR; Biacore T200, 25 °C, 10 mM Hepes-Na (pH 7.5), 200 mM NaCl, 0.05% Tween20; SALM5 proteins immobilised on a CM5 chip by amino coupling; PTPδ proteins injected as analytes (0.1–260 μM); both purified
T2 sequence: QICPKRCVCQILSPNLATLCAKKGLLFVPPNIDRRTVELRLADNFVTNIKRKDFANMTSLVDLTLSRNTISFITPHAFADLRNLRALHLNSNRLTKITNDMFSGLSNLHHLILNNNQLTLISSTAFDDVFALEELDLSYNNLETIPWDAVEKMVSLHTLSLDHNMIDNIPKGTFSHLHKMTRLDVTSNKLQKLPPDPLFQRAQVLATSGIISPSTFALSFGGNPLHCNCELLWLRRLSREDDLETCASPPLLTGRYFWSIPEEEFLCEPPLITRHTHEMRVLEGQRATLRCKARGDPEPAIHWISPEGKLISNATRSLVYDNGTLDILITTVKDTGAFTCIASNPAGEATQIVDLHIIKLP

[3] = molecular target: T2, human SALM5 LRR–Ig-His6 (residues 18–378) (human); experiment: crystal structure; co-crystals of PTPδ Ig1–Fn1 with SALM5 LRR–Ig (70 µM each) and of PTPδ Ig1–Ig3 with SALM2 LRR–Ig (57 µM each), sitting drop vapor diffusion, 20 °C; two complexes in the asymmetric unit (2:2); both purified

“mouse PTPδ Ig1–Ig3 (residues 28–325) (domain or fragment)” was tested, and the binding [1] was “binds”.

For “mouse PTPδ Ig1–Fn1 (A9B+)-His6 L141A (domain or fragment)”, the binding [2] was “no binding (tested: analyte series 0.1–260 μM (methods))”.

With “mouse PTPδ Ig1–Fn1 (A9B+)-His6 (domain or fragment)” the binding [3] was “binds”.
